# The campaign covered roughly 370,000 compounds. About 100 (0.027%) were called active. Inconclusive results, whose numbers are uncertain, are shown with a selection of clear calls. Calls follow the shape of the dose curve; as a rule, active = well fitted inhibition curve with a large enough effect in the polarisation, with a control signal flat; inconclusive = small, poorly fitted or top-dose-only effect, or effect the other way, or a change in a side signal; inactive = no such curve, though single readings can be large or run the other way; the % refers to the polarisation. A potency beside an inconclusive call is a rough fit, not a confirmed value. “Side channel” marks fits to a control or component signal instead of the main read-out.
# By UniProt entry, the sequences of proteins in these tests, tags left out.
# UniProt P11308, whole entry, looked up: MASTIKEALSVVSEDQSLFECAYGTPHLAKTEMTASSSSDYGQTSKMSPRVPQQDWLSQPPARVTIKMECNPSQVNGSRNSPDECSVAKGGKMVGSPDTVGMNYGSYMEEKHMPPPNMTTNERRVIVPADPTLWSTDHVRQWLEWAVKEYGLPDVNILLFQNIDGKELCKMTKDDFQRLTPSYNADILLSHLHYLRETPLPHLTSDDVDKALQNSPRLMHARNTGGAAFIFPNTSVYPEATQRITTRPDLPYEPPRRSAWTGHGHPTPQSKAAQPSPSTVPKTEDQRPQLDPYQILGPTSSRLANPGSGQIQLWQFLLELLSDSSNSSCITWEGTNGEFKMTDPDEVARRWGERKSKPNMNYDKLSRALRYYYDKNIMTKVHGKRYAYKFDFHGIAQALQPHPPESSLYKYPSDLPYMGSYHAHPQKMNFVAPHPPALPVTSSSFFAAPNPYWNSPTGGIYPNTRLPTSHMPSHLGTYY
# Biological target: Transcriptional regulator ERG (Homo sapiens) (UniProt P11308)
# Test: qHTS for Small Molecule Inhibitors of the ERG Ets/DNA interaction; as to FP activity, negative = inhibition: % of control where 0% means no effect
# Settings: fluorescence polarization, His-ERG Ets domain / labelled DNA; FP activity, negative = inhibition: at 76.9 µM (top of the series)
# Summary of the method: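 His-tagged ERG Ets domain (1 uM in the protein solution; 300mM KCl, 50mM Tris-HCl, 1mM EDTA, 1mM DTT, pH 7.5) received compound, then a probe mix of 5 nM fluorescein-DNA and 100nM Texas-615-DNA. Fluorescence polarization was read for both dyes.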
# Potency is read from the fitted curve at half-maximal effect.
SMILES,Potency,"FP activity, negative = inhibition"
Cc1ccc(-n2c3c(c(=O)[nH]c2=O)C(NS(=O)(=O)c2ccc(Cl)cc2)(C(F)(F)F)C(=O)N3)cc1 (stereo not drawn),"inconclusive: 50.1 µM [inhibitor, single point]",
CC(=O)c1cccc(NC(=O)C(C)OC(=O)CCc2nc3ccccc3c(=O)[nH]2)c1 (stereo not drawn),"inconclusive: 11.2 µM [inhibitor, single point]",
CC1(C)C2CCC1(CS(=O)(=O)Nc1ccccc1)C(=O)C2 (stereo not drawn),"inconclusive: 35.5 µM [inhibitor, single point]",
CC(=O)Nc1nnc(-c2c(-c3c(Cl)cccc3Cl)noc2C)o1,"inconclusive: 2.24 µM [inhibitor, partial curve, poor fit]",
O=C(/C=C/c1ccco1)Nc1ccccc1C(=O)O,,inactive: 2.47%
C=CCOC(=O)C(=O)/C=C/c1csc2ccccc12,,inactive: 7.92%
CCOc1ccccc1NC(=O)C1=C(C)Nc2ncnn2C1c1sccc1C (stereo not drawn),"inconclusive: 20 µM [quencher, side channel, partial curve, poor fit]",
CC(C)NCC(O)c1ccc(NS(C)(=O)=O)cc1 (stereo not drawn),"inconclusive: 31.6 µM [inhibitor, single point]",
CCCN(C(=O)c1cc2c(Cl)nc3ccccc3c2s1)c1cccc(C)c1,"inconclusive: 22.4 µM [quencher, side channel, partial curve]",
CC(=O)c1cccc(NC(=O)N2CCCc3ccccc32)c1,,inactive: -3.27%
CCCCc1nn2c(=O)cc(COC(=O)c3ccccc3NC(=O)C(C)(C)C)nc2s1,"inconclusive: 100 µM [inhibitor, single point]",
CCOc1ccc(N2CC(c3nc4ccccc4n3Cc3cccc(Cl)c3)CC2=O)cc1 (stereo not drawn),"inconclusive: 10 µM [quencher, side channel, partial curve, poor fit]",
COc1ccc(NC(=O)C2=C(C)Nc3ncnn3C2c2ccc(O)cc2)cc1 (stereo not drawn),,inactive: -1.95%
Oc1ccc(NCc2cccc(OCc3ccccc3)c2)cc1,"inconclusive: 25.1 µM [inhibitor, single point]",
Cc1nc(-c2ccccc2)sc1C(=O)CSc1ccc(Cl)cc1,,inactive: -0.409%
S=C(N/N=C/c1cccc2ccccc12)Nc1cccc(Cl)c1,,inactive: 1.27%
CCCCCCCCCCCCCCCC[N+](C)(C)CCN(Cc1ccc(OC)cc1)c1ncccn1,,inactive: -7.22%
COc1ccccc1N1CCN(C(=O)c2ccc(CS(=O)c3ccccc3C)o2)CC1 (stereo not drawn),"inconclusive: 50.1 µM [quencher, side channel, single point]",
Cc1cc(-c2ccc(C(=O)O)s2)cnc1N,,inactive: -3.55%
O=C(O)c1ccc(CN2C(=O)CSC2=S)cc1,"inconclusive: 22.4 µM [fluorescent, side channel, partial curve]",
Cc1cccc(NC(=O)c2cc3ccccc3nc2C)c1,"inconclusive: 35.5 µM [inhibitor, partial curve]",
c1ccc(-c2cc3ccccc3[nH]2)cc1,"inconclusive: 11.2 µM [inhibitor, single point]",

SMILES,Potency,"FP activity, negative = inhibition"
COc1ccc(NC(=O)c2cc([N+](=O)[O-])ccc2NC(=O)CNCc2ccccn2)c(OC)c1,,inactive: -8.99%
COc1ccc(NC(=O)NNC(=O)CCc2ccc(O)c(O)c2)cc1OC,,inactive: -4.5%
CN(C(=O)c1ccccc1C(=O)OCC(=O)c1ccc(F)c(F)c1)C1CCCCC1,,inactive: 0.118%
CN(C)c1cc(-c2ccc(Br)cc2)oc(=O)c1Cl,,inactive: 1.04%
Cc1ccc2c(c1)N(CCC(=O)NC1CCCCC1)C(=O)CO2,"inconclusive: 31.6 µM [inhibitor, single point]",
Cc1ccc(-n2[nH]c(=O)c(-c3ccccn3)c2C)cc1,,inactive: 8.23%
COc1cccc(N/C=C/c2onc(C)c2[N+](=O)[O-])c1,"inconclusive: 50.1 µM [inhibitor, single point]",
O=C(NCc1cccnc1)c1ccc(COc2ccc3c(c2)CCC3)o1,,inactive: 1.44%
COc1ccc(-n2c(SCC(C)=O)nc3sc(C)c(C)c3c2=O)cc1,"inconclusive: 50.1 µM [inhibitor, partial curve, poor fit]",
CCCCn1c(N)c(N(CCOC)C(=O)c2ccc(S(=O)(=O)N3CCCCC3)cc2)c(=O)[nH]c1=O,"inconclusive: 0.794 µM [inhibitor, partial curve, poor fit]",
CN(C)c1ccc(N=Nc2ccccc2C(=O)OCC(=O)NCC2CCCCC2)cc1,"inconclusive: 15.8 µM [quencher, side channel, partial curve, poor fit]",
C=CCN(CC=C)S(=O)(=O)c1ccc(NC(=S)NC(=O)c2ccc(-c3ccccc3)cc2)cc1,,inactive: 3.43%
O=C1Cc2cc(S(=O)(=O)N3CCN(c4ccccc4)CC3)ccc2N1,"inconclusive: 31.6 µM [quencher, side channel, partial curve, poor fit]",
CCCCn1c(=O)[nH]c2nc3cc(N)ccc3nc2c1=O,"inconclusive: 35.5 µM [inhibitor, partial curve, poor fit]",
OC[C@@H]1[C@@H](c2ccc(Cl)cc2)C(c2cccc(Cl)c2)=NN1c1ccccc1,,inactive: 16.9%
COc1ccc(-c2noc(-c3ccoc3C)n2)cc1OC,,inactive: -7.62%
COc1ccc(C(=O)Nc2cc(C)c(NC(=O)c3ccccc3OC)cn2)cc1,"inconclusive: 50.1 µM [inhibitor, single point]",
Cc1ccc(-n2c(=O)c3c4c(sc3n(CC(=O)c3ccc(Cl)cc3)c2=O)CCC4)cc1C,"inconclusive: 11.2 µM [quencher, side channel, single point]",
Cc1cccc(/C=N/NC(=O)NC23CC4CC(CC(C4)C2)C3)n1,"inconclusive: 31.6 µM [inhibitor, partial curve, poor fit]",
COc1ccc(NC(=O)c2cc3c(-c4ccc(OC)c(OC)c4)nn(C)c3s2)cc1OC,"inconclusive: 5.01 µM [quencher, side channel, full curve]",
O=C(CCNC(=O)c1ccccc1Cl)NCCCSc1ccccc1,"inconclusive: 11.2 µM [inhibitor, single point]",

# By substructure: those above containing fluorine (2)
SMILES,Potency,"FP activity, negative = inhibition"
Cc1ccc(-n2c3c(c(=O)[nH]c2=O)C(NS(=O)(=O)c2ccc(Cl)cc2)(C(F)(F)F)C(=O)N3)cc1 (stereo not drawn),"inconclusive: 50.1 µM [inhibitor, single point]",
CN(C(=O)c1ccccc1C(=O)OCC(=O)c1ccc(F)c(F)c1)C1CCCCC1,,inactive: 0.118%

# — PubChem BioAssay AID624246 (National Center for Advancing Translational Sciences (NCATS), 2012)
